In test [1] the target is PgaA-220-367 (crystallized fragment of PgaA-32-367) (E. coli K-12) (UniProt P69434). The test is described as follows: crystal structure; PgaA-32-367 without His6-tag, 16 mg/mL, sitting drop, PEG 8000, 0.1 M Tris, 200 mM MgCl2; space group P6_(2), two molecules in the asymmetric unit; both purified.
Test [2] has as its target T1, His-PgaA-Δ220 (His-PgaA-221-807) (E. coli K-12) (UniProt P69434).
T1 sequence: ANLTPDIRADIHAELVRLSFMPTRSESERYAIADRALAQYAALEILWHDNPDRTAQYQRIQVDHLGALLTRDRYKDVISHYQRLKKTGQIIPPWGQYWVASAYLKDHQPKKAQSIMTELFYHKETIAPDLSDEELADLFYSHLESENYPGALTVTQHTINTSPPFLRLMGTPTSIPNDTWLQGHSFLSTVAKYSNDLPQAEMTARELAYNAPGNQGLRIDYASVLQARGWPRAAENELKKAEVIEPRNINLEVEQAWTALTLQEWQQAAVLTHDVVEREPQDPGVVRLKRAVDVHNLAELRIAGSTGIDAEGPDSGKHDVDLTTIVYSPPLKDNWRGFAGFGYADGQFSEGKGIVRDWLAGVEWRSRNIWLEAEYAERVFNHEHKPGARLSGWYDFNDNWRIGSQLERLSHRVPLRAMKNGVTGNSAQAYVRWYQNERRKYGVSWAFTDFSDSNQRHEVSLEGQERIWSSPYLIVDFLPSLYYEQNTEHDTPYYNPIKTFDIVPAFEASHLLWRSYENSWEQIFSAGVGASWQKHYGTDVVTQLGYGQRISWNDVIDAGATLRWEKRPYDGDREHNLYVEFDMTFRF
Kind of test: pull-down; Ni-NTA batch pull-down of N-terminally His-tagged PgaA constructs co-expressed with untagged PgaB constructs in E. coli BL21; lysate pellet solubilised in 1X PBS with 1% DDM, washes in PBS with 0.5% DDM, 4°C; Western blot with anti-his and anti-PgaB.

In test [3] the target is T2, His-PgaA (PgaA-32-807) (E. coli K-12, UniProt P69434 32-807).
T2 construct: also called His-PgaA-32-807; full-length PgaA; source: E. coli BL21: co-expressed with PgaB, in DDM extract of the lysate pellet (pull-down); expressed alone or with PgaB and purified (NiNTA, gel filtration, DDM); not shown: His6, N-terminal, kept
T2 sequence (looked up): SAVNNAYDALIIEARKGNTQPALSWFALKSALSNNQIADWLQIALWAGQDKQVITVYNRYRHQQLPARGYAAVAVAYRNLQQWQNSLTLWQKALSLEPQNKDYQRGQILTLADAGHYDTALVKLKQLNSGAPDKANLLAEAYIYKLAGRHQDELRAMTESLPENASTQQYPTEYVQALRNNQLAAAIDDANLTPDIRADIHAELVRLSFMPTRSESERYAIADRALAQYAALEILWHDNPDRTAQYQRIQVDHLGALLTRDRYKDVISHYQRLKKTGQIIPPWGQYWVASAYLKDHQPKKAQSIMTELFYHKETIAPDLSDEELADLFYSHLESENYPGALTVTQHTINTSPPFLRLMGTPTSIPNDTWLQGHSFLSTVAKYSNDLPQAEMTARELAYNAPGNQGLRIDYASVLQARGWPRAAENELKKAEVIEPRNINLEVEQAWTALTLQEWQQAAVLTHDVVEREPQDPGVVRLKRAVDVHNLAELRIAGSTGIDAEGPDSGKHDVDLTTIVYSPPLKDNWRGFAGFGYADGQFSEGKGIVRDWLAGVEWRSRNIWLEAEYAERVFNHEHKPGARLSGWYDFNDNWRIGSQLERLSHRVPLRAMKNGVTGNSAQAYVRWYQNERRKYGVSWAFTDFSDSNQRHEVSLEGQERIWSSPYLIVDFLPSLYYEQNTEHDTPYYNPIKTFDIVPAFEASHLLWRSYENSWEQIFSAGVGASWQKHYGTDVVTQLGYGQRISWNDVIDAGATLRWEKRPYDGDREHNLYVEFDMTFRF
The test is described as follows: co-purification (NiNTA, gel filtration) with SDS-PAGE; His-PgaA and PgaB constructs co-expressed in BL21, extracted with 1% DDM, purified by NiNTA and gel filtration (20 mM Tris pH 8, 150 mM NaCl, 0.1% DDM); Coomassie gel of the purified complexes.

Substitutions are numbered along the chain they refer to. Names and notes keep the numbering of the source. No constants are given. Whether binding was seen depends on the method and setting. For part of these data: In cells and extracts the contact can be indirect. Some entries that bind do so weakly or less than the wild type. For part of these data: Tags and fused reporters may be left off the sequences shown.

B1: PgaA-220-367 (crystallized fragment of PgaA-32-367) (domain or fragment, UniProt P69434 220-367)
chain: DANLTPDIRADIHAELVRLSFMPTRSESERYAIADRALAQYAALEILWHDNPDRTAQYQRIQVDHLGALLTRDRYKDVISHYQRLKKTGQIIPPWGQYWVASAYLKDHQPKKAQSIMTELFYHKETIAPDLSDEELADLFYSHLESEN
Consider B1, for which the binding result in test [1] is given as “no binding”.

B2: PgaB-1-672-C21S (enzyme, UniProt P75906 21-672)
chain: SISQSRTSFIPPQDRESLLAEQPWPHNGFVAISWHNVEDEAADQRFMSVRTSALREQFAWLRENGYQPVSIAQIREAHRGGKPLPEKAVVLTFDDGYQSFYTRVFPILQAFQWPAVWAPVGSWVDTPADKQVKFGDELVDREYFATWQQVREVARSRLVELASHTWNSHYGIQANATGSLLPVYVNRAYFTDHARYETAAEYRERIRLDAVKMTEYLRTKVEVNPHVFVWPYGEANGIAIEELKKLGYDMFFTLESGLANASQLDSIPRVLIANNPSLKEFAQQIITVQEKSPQRIMHIDLDYVYDENLQQMDRNIDVLIQRVKDMQISTVYLQAFADPDGDGLVKEVWFPNRLLPMKADIFSRVAWQLRTRSGVNIYAWMPVLSWDLDPTLTRVKYLPTGEKKAQIHPEQYHRLSPFDDRVRAQVGMLYEDLAGHAAFDGILFHDDALLSDYEDASAPAITAYQQAGFSGSLSEIRQNPEQFKQWARFKSRALTDFTLELSARVKAIRGPHIKTARNIFALPVIQPESEAWFAQNYADFLKSYDWTAIMAMPYLEGVAEKSADQWLIQLTNQIKNIPQAKDKSILELQAQNWQKNGQHQAISSQQLAHWMSLLQLNGVKNYGYYPDNFLHNQPEIDLIRPEFSTAWYPKND
With B2, in test [2], the binding entry is listed as “binds”.

B3: PgaB-D115A (enzyme, UniProt P75906 21-672)
chain: B2 chain with S1C, D95A
B3: the binding entry in test [3] is on record as “binds”.

Source of the values: publication PMC9384988, “The TPR domain of PgaA is a multifunctional scaffold that binds PNAG and modulates PgaB-dependent polymer processing” (PLoS Pathogens, 2022).
